Results as given in publication PMC3781053.
Results are given in words; binding and its absence hold for the method and conditions named. Binding seen in cells or lysates may run through a third protein. Some results given as binding are weak or reduced against the parent protein; the word gives no strength.

Protein sequences, listed by entry. Tags and fused reporters are not part of them. Lines headed by an entry give the natural chain unless they say otherwise; changes in a name come on top. Residues count along the entry.
UniProt P04275, residues 23-2813: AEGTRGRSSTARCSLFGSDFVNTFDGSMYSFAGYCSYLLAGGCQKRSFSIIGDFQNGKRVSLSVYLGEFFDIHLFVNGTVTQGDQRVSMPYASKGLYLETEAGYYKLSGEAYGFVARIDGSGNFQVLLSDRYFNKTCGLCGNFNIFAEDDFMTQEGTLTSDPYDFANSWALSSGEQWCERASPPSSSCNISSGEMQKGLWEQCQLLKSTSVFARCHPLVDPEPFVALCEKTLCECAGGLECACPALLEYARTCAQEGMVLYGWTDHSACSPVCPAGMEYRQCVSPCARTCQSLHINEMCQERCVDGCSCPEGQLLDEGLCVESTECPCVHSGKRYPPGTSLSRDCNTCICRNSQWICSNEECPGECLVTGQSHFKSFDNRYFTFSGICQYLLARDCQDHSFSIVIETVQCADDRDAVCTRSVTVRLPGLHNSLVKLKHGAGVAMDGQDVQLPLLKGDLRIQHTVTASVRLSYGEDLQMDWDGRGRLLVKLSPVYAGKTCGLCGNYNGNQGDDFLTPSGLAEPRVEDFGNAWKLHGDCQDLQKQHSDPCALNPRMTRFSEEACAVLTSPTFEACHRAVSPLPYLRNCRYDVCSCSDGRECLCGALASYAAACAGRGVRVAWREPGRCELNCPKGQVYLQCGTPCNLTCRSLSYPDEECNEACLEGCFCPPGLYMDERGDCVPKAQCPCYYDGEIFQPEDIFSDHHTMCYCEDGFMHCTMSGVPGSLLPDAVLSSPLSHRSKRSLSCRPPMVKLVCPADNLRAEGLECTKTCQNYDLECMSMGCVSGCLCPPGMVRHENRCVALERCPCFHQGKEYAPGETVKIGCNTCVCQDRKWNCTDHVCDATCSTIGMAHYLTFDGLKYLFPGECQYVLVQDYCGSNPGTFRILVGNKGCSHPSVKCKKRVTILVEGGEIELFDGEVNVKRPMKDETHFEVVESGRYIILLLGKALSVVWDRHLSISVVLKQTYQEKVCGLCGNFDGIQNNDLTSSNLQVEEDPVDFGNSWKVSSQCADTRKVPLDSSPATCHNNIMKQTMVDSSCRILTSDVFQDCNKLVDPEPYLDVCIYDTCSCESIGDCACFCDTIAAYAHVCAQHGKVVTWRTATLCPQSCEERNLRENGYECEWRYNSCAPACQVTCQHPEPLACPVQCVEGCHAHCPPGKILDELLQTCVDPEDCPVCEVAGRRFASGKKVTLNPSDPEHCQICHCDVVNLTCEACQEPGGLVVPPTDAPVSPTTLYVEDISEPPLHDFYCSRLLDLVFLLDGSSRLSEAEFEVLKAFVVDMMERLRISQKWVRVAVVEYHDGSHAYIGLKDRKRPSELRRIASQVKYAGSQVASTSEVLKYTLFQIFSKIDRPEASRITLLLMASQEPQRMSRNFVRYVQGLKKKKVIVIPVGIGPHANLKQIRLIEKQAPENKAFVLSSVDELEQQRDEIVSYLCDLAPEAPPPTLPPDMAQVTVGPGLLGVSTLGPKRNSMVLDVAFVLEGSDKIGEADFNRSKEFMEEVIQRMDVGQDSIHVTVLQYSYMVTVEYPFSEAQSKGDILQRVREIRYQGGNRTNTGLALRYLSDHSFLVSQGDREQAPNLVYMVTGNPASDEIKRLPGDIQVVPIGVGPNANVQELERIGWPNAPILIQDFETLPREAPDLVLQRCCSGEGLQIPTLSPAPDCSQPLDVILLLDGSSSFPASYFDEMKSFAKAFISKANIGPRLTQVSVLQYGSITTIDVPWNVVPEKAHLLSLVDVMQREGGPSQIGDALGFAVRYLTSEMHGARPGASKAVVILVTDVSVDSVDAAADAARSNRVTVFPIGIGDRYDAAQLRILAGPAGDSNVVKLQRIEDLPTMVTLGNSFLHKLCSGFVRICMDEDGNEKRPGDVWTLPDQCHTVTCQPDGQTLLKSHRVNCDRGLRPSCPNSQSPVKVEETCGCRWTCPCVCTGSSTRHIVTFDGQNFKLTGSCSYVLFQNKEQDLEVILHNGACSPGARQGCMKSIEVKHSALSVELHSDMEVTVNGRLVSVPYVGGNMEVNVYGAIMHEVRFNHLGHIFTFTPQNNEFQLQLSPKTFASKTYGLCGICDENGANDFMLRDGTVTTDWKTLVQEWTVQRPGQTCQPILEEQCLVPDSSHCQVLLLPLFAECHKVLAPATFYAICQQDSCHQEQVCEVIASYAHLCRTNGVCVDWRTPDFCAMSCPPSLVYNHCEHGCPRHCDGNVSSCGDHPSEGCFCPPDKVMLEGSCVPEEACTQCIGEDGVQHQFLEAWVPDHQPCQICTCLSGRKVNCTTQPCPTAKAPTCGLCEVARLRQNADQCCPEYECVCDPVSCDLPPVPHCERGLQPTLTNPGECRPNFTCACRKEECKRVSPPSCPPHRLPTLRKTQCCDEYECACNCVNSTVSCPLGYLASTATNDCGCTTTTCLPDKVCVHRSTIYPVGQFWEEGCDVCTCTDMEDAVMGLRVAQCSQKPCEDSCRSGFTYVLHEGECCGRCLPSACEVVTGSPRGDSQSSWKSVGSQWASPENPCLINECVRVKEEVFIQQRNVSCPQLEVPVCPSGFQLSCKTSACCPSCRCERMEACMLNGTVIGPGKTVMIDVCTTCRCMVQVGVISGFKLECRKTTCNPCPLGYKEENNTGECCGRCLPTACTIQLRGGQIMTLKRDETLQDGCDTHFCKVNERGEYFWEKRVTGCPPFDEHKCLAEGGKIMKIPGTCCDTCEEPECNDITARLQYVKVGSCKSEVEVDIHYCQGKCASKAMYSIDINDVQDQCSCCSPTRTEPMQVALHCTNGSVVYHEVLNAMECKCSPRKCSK
UniProt Q9UM47: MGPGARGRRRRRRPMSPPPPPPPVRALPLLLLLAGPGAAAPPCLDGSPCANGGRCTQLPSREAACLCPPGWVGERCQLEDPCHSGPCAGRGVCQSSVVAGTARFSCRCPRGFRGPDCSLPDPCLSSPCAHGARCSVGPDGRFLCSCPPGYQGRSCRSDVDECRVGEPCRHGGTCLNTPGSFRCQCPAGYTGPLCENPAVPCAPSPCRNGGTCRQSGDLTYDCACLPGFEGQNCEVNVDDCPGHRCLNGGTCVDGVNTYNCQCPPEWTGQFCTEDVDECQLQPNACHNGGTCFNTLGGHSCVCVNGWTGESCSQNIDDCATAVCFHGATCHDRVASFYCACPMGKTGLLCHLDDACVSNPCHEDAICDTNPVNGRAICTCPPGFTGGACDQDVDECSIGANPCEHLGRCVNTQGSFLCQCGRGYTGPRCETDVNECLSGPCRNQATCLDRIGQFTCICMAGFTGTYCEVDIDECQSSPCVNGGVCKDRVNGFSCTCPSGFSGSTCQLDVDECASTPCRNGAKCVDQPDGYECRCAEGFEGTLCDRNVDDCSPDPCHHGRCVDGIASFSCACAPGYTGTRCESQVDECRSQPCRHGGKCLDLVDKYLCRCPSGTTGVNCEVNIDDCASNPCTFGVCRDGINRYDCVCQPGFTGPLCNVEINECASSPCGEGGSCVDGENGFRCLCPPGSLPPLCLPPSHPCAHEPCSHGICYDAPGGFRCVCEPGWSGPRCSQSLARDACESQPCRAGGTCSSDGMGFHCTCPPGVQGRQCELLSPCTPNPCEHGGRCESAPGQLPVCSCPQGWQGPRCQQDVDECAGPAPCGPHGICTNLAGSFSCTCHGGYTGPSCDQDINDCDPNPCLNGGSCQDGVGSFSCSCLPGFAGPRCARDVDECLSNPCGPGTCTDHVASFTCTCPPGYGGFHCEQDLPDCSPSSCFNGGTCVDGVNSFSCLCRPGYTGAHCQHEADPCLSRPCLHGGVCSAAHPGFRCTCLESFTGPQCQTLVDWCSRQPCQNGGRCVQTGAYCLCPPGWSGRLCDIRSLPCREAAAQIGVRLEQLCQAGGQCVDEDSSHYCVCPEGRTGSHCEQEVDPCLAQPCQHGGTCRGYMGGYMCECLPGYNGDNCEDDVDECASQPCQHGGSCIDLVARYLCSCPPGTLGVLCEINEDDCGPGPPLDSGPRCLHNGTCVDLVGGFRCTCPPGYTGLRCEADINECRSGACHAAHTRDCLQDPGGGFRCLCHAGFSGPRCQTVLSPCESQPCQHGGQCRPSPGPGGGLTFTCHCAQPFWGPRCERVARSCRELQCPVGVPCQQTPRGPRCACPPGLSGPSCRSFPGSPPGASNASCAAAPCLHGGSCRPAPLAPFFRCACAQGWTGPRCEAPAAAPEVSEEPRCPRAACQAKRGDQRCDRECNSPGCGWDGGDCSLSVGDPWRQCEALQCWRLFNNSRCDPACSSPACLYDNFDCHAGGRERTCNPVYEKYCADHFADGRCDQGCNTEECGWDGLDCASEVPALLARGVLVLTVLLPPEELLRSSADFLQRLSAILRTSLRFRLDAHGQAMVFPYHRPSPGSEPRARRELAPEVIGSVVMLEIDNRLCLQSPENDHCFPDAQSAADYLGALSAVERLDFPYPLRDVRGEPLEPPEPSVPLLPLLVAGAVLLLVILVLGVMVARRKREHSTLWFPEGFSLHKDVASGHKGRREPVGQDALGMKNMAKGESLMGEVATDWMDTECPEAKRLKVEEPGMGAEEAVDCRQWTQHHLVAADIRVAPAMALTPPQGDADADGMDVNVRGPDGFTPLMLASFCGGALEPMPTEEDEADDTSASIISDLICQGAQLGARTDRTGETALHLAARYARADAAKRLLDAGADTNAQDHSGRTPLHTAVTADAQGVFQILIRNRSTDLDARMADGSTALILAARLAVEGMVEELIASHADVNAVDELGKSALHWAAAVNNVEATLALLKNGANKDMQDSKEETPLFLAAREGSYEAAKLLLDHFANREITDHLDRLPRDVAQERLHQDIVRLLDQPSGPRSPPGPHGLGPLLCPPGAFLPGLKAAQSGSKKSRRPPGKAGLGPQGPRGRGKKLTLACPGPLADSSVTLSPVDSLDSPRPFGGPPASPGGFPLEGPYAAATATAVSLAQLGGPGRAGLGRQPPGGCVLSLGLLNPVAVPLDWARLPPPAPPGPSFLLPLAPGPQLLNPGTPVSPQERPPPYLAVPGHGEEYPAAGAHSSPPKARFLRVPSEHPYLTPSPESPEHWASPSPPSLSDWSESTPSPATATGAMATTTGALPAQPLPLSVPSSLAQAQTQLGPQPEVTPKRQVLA
UniProt Q99466, residues 24-1447: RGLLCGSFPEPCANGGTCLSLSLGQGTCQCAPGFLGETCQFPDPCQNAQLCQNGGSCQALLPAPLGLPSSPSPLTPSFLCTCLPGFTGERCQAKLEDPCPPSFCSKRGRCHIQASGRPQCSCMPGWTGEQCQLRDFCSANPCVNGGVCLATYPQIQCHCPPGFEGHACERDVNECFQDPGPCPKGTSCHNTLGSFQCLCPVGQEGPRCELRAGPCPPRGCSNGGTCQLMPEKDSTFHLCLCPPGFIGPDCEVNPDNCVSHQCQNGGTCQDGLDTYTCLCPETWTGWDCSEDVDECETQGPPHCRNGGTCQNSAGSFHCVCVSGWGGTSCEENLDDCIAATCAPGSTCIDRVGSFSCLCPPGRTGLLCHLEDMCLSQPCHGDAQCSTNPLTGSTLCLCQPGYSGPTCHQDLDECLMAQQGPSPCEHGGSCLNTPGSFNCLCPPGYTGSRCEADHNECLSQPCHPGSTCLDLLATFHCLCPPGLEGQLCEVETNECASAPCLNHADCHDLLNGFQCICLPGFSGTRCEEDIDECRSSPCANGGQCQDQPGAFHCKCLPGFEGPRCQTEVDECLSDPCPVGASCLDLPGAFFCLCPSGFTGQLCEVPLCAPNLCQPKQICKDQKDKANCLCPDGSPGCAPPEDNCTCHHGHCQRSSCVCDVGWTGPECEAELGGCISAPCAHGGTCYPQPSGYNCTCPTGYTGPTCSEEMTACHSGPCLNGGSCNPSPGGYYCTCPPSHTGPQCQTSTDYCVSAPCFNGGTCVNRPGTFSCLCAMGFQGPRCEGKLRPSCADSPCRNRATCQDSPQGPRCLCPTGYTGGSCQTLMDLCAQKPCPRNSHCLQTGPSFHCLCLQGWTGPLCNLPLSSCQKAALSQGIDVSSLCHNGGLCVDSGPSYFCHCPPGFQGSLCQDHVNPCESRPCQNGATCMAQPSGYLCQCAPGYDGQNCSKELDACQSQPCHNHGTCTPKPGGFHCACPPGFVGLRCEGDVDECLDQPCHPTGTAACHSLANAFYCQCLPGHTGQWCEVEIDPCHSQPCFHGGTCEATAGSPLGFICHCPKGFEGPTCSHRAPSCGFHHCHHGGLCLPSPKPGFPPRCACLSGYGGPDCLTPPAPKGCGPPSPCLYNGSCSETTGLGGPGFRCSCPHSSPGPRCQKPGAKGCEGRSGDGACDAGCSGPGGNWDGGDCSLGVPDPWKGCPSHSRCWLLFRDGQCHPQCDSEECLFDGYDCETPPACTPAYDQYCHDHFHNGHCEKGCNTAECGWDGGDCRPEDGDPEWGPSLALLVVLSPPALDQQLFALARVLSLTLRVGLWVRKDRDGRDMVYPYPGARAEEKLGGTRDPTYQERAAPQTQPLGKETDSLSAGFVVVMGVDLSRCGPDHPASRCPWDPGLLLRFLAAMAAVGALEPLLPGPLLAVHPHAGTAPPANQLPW

These substances were tested against full length, C-terminally myc-(His)6-tagged human vWF (human) (UniProt P04275) (assay: co-IP; 293A cells cotransfected with vWF and Notch or Jagged1 ectodomains or full length NOTCH3; lysates treated with monoclonal antibody and protein G-agarose at 4°C; immunoblot).

binding, binds:
full length human NOTCH3 (from UniProt Q9UM47 40-2321) (receptor)
human Jagged1 ectodomain, C-terminally tagged (from UniProt P78504 34-1067) (domain or fragment)
human Notch1 ectodomain, V5-tagged (from UniProt P46531 19-1735) (domain or fragment)
human Notch2 ectodomain, V5-tagged (from UniProt Q04721 26-1677) (domain or fragment)
human Notch3 ectodomain, HA-tagged (from UniProt Q9UM47 40-1643) (domain or fragment)
human Notch4 ectodomain, V5-tagged (from UniProt Q99466 24-1447) (domain or fragment)
